## Screening data

The results are deposited in PubChem (AID1919874; NCATS, 2023).

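This is a 48-hour survival test in one myeloma cell line, with living cells counted by a luciferase signal from cellular ATP.
Each compound was run as a titration from about 0.000031 to 92 µM.
The number is the fitted AC50, the concentration giving half of the maximal effect; a lower value means a more potent compound.
Calls follow the fitted curve class and activity score: actives score 40–100, inconclusives score 1–39 (weak, poorly fitted, top-dose-only or opposite-direction curves), and inactives score 0.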

Values are in nM.
Every entry below has the call inconclusive.
These entries are mostly ones the record files as inconclusive; other results of the assay are not listed here.
A potency from a partial, single-point or poor curve is only a rough figure.
Some entries filed as inconclusive have a full curve.
The first word of each remark tells which way the curve ran; it can be opposite to the aim of the assay.
Activity scores are not listed here.

compound,Potency (nM),curve as filed
Cn1c2ccccc2c2c3c(c4c5ccccc5n(CCC#N)c4c21)CNC3=O,4176,"cytotoxic, full curve"
NC(=O)N1c2ccccc2CC(=O)c2ccccc21,11770,"cytotoxic, single point"
O=C(Nc1ccc([N+](=O)[O-])cc1Cl)c1cc(Cl)ccc1O,833.3,"cytotoxic, full curve"
Cc1cc(N2CCOCC2)cc2[nH]c(-c3c(NC[C@@H](O)c4cccc(Cl)c4)cc[nH]c3=O)nc12,74.3,"cytotoxic, full curve, poor fit"
O=Nc1c(-c2c(O)[nH]c3cc(Br)ccc23)[nH]c2ccccc12,20930,"cytotoxic, partial curve, poor fit"
CC(C)(O)CC[C@@H](O)[C@](C)(O)[C@H]1CC[C@@]2(O)C3=CC(=O)[C@@H]4C[C@@H](O)[C@@H](O)C[C@]4(C)[C@@H]3CC[C@]12C,5258,"cytotoxic, partial curve, poor fit"
c1ccc2c(CN3CCNCC3)cccc2c1,18654,"cytotoxic, partial curve, poor fit"
COc1ccc2cc3[n+](cc2c1OC)CCc1cc2c(cc1-3)OCO2,2093,"cytotoxic, full curve, poor fit"
CN(C)CC[C@H](c1ccc(Cl)cc1)c1ccccn1,37221,"cytotoxic, single point"
C[C@H]1C[C@H]2[C@@H]3CCC4=CC(=O)C=C[C@]4(C)[C@@H]3C(=O)C[C@]2(C)[C@@]1(O)C(=O)CO,14.8,"rising, full curve, poor fit"
Cc1c(NC(=O)OC[C@@H]2COCCN2)cn2ncnc(Nc3ccc4c(cnn4Cc4cccc(F)c4)c3)c12,33173,"cytotoxic, single point"
C[C@@H]1[C@H](O)[C@@H](C)C=CC=CC=CC=CC=CC=CC=C[C@H](O[C@@H]2O[C@H](C)[C@H](O)[C@H](N)[C@@H]2O)C[C@@H]2O[C@](O)(C[C@@H](O)C[C@@H](O)[C@H](O)CC[C@@H](O)C[C@@H](O)CC(=O)O[C@H]1C)C[C@H](O)[C@@H]2C(=O)O,11770,"rising, partial curve"
CN[C@H]1[C@@H](O)[C@@H]2O[C@@H]3O[C@H](C)CC(=O)[C@]3(O)O[C@@H]2[C@@H](NC)[C@H]1O,2093,"cytotoxic, full curve, poor fit"
COC(=O)Nc1nc2ccc(S(=O)c3ccccc3)cc2[nH]1 (stereo not shown),8333,"cytotoxic, full curve"
CCOc1cc2ncc(C#N)c(Nc3ccc(OCc4ccccn4)c(Cl)c3)c2cc1NC(=O)C=CCN(C)C,2348,"cytotoxic, full curve"
CC(O)(C#Cc1ccc2c(c1)N(c1nc(N)ncc1Cl)CC2)c1nccs1 (stereo not shown),33173,"cytotoxic, single point"
CN1CCc2c(c3ccccc3n2Cc2ccc(C(=O)NO)cc2)C1,20930,"cytotoxic, partial curve, poor fit"

The last 2 entries again:

| compound | Potency (nM) | curve as filed |
|---|---|---|
| `CC(O)(C#Cc1ccc2c(c1)N(c1nc(N)ncc1Cl)CC2)c1nccs1` (stereo not shown) | 33173 | cytotoxic, single point |
| `CN1CCc2c(c3ccccc3n2Cc2ccc(C(=O)NO)cc2)C1` | 20930 | cytotoxic, partial curve, poor fit |